Experimental data from article PMC8173141.
These are yes or no findings as the source states them, for the method shown. Binding seen in cells or lysates may run through a third protein. Some binding calls cover weakened binding; strength is not graded here.

Amino acid sequences for entries named in this document (tags omitted).
UniProt C3VPR6: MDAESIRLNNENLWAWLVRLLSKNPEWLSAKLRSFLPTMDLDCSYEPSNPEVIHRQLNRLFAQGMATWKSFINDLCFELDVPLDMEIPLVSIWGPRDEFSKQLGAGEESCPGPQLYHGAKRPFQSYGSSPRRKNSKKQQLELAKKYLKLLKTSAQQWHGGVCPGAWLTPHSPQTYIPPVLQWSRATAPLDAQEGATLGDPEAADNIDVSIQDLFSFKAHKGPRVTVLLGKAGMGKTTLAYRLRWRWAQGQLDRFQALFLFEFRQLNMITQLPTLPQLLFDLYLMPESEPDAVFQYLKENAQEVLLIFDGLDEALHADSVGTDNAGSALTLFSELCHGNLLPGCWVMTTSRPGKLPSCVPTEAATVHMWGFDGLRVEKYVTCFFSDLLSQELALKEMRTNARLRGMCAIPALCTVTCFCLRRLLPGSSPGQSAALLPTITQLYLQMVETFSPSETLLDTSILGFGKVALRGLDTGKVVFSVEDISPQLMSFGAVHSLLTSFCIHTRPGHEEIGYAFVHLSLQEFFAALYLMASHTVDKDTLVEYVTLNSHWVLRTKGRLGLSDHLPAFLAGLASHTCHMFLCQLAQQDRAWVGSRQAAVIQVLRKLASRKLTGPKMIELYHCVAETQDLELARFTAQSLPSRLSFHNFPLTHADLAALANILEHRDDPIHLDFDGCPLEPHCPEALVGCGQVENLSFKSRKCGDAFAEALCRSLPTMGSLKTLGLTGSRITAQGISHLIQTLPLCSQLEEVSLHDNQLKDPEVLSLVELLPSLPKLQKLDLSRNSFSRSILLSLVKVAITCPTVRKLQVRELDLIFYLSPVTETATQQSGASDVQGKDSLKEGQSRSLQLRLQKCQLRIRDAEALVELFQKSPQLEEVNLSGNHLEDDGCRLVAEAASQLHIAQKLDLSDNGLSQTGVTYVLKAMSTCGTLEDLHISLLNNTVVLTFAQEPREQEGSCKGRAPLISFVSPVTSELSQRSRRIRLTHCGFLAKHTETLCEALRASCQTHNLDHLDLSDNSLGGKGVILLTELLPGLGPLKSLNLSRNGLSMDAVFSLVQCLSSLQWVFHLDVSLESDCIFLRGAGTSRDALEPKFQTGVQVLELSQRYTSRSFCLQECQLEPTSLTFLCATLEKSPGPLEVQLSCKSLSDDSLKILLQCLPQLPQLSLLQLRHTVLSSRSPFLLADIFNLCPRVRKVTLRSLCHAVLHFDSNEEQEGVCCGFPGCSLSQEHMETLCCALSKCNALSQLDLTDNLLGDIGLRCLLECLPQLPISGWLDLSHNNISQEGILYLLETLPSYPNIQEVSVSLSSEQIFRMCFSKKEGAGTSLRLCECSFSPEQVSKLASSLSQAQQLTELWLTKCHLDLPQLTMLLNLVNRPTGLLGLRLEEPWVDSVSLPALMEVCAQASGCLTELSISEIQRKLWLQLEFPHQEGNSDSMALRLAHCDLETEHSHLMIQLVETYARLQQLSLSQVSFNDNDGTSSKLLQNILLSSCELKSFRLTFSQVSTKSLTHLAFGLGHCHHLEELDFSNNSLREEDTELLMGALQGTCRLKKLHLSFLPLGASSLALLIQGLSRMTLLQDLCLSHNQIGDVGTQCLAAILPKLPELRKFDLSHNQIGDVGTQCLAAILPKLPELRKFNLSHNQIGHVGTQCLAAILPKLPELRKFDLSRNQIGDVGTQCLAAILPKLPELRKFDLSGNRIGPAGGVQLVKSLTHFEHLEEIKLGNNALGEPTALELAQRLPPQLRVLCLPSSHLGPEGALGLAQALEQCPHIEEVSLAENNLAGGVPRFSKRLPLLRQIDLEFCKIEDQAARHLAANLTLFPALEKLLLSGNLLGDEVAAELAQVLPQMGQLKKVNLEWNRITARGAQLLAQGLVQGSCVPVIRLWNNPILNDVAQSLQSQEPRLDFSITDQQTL
UniProt Q3UP24: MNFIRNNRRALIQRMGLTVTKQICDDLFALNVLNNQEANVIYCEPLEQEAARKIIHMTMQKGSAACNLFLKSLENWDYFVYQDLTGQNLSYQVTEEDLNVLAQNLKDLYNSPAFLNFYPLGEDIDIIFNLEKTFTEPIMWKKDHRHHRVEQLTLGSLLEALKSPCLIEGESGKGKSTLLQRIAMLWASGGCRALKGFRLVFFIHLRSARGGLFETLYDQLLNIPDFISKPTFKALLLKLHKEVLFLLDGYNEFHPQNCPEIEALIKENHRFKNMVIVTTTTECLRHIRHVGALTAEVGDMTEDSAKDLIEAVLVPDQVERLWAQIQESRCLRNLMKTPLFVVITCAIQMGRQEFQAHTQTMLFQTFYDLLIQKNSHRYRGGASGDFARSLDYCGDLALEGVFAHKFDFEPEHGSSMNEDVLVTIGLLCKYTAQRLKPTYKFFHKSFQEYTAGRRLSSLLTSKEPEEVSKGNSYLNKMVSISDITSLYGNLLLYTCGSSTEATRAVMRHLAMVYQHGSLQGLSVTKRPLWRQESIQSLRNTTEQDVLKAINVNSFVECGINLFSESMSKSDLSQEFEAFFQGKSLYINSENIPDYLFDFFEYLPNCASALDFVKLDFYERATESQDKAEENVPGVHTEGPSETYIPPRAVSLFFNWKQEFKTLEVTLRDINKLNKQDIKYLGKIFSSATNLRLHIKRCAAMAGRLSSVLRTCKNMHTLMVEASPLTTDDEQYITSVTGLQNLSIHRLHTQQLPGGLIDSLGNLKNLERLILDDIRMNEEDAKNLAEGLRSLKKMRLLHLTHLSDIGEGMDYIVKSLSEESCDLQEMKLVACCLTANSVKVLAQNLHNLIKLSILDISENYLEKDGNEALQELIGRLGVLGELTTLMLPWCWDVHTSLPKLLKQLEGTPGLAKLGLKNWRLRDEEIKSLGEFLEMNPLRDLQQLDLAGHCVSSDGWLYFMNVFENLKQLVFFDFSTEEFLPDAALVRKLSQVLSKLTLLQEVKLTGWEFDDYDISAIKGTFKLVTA
UniProt Q8R4B8: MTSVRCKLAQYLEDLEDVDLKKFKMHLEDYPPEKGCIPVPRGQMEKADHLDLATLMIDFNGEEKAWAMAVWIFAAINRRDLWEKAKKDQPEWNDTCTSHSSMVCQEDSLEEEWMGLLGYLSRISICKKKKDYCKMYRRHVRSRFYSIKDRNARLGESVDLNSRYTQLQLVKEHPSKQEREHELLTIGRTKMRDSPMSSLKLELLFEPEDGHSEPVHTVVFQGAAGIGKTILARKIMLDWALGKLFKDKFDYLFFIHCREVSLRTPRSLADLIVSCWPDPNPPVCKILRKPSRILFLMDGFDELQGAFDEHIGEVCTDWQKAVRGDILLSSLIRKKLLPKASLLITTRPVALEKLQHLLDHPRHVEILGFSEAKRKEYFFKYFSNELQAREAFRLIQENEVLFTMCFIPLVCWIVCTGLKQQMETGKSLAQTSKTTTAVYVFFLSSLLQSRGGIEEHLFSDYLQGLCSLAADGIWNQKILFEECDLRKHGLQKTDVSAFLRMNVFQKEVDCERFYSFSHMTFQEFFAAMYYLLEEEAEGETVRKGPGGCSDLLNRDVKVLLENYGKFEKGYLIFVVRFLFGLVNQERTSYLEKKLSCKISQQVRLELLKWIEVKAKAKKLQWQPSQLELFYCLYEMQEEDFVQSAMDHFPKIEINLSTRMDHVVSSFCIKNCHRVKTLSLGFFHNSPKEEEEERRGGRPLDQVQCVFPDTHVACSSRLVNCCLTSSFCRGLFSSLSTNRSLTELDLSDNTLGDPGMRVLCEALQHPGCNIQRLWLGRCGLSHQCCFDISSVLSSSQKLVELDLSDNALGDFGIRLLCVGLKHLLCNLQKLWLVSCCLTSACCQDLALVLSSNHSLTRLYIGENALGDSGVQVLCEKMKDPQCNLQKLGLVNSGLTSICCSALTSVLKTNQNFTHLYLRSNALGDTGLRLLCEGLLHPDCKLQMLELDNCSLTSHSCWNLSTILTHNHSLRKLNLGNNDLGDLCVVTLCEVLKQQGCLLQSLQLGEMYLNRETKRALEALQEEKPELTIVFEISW

Biological target: NOD-, LRR- and CARD-containing 5 (NLRC5) (mouse (endogenous in BV2)) (UniProt C3VPR6)
Assay: co-IP; BV2 cell lysate (cells subjected to OGDR); anti-NLRC5 or control mouse IgG overnight at 4°C, Protein A/G-agarose beads 3 h, washed three times with cell lysis buffer, western blot

Row | binding | Substance
1 | binds | NLRC4 (from UniProt Q3UP24 1-1024)
2 | binds | NLRP3 (from UniProt Q8R4B8 1-1033)
